55 molecules from PubChem BioAssay AID2685 (National Center for Advancing Translational Sciences (NCATS), 2010) can be followed below.

This experiment can be described thus: qHTS Assay for Lipid Storage Modulators in Drosophila S3 Cells.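 For cell number change: cells counted by Cell Tracker Red CMTPX staining in the red channel.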 The following applies: BODIPY lipid droplet fluorescence, 18-24 h; for cell number change: measured here: cell count max response, cells fed with added oleic acid. The method, boiled down: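 Drosophila S3 cells got compounds at several concentrations plus oleic acid (400 uM solution). Laser-scanning cytometry with 488 nm excitation read lipid droplets at 500-530 nm and cells at 575-640 nm. Percent activity was relative to 20 uM Triacsin C.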

Where [1] appears, read: measured here: cell number channel AC50, cells fed with added oleic acid.
Where [2] appears, read: measured here: lipid fluorescence (Fed channel) AC50, cells fed with added oleic acid.

Structures are written as SMILES. The list shows a part of the results. Further columns of the screen follow, without active or inactive calls. Most of these compounds were active or inconclusive in the main read-out, so they are no random draw. Potencies come from curve fits of mixed quality, noted in brackets.

With `O=c1cc(C(F)(F)F)[nH]c(=S)n1-c1ccccc1`, the cell number change is -6.84%.

Turning to `O=C(C1CC1)N1CCc2cc(S(=O)(=O)N3CCN(c4ccccc4)CC3)ccc21`, the cell number change amounted to 5.7%. Also, under setting [1], the AC50 (in general, the concentration at which the activity in the assay is half-maximal) is 2.06 µM [rising, partial curve, poor fit]. For the same molecule, the AC50 under setting [2] is 0.58 µM [rising, single point].

For `c1ccc2oc(-c3ccc(Nc4nc(N5CCCCC5)nc(N5CCOCC5)n4)cc3)nc2c1`, the cell number change was found to be 20.6%. Besides, the AC50 under setting [2] is 10.3 µM [rising, partial curve].

Take `COc1ccc(-c2oc3ccccc3c2C(=O)OCc2ccc(O)cc2)cc1`: the cell number change is -2.27%. For the same molecule, under setting [2], the AC50 was 29.1 µM [rising, single point].

With `Cc1cc(N2C(=O)CC(N3CCN(c4ccc(C(=O)c5cccs5)cc4)CC3)C2=O)no1` (stereo unspecified), the AC50 under setting [2] is 0.164 µM [rising, full curve, poor fit].

On to `Cc1cc(=O)oc(C)c1C(=O)Nc1cccc2ccccc12`, for which the cell number change is -79.1%. Also, under setting [1], the AC50 was 29.1 µM [falling, single point].

Regarding `COC(=O)C1CCN(S(=O)(=O)c2ccc(NC(C)=O)cc2)CC1`, the cell number change came out at 20.1%.

As to `O=C(C[n+]1cccc(NC(=O)c2ccccc2)c1)c1cccc([N+](=O)[O-])c1`, the cell number change was 22.2%. Moreover, the AC50 under setting [2] is 0.0082 µM [falling, full curve, poor fit].

On to `C[C@]12C=CC(=O)C=C1CC[C@@H]1[C@@H]2[C@@H](O)C[C@@]2(C)[C@H]1CC[C@]2(O)C(=O)COC(=O)CCC(=O)O`, for which the cell number change was -19.6%. Further, under setting [2], the AC50 is 1.64 µM [falling, partial curve].

Take `O=c1[nH]c2ccccc2nc1/C=C(\O)c1cccs1`: the cell number change was found to be 28.3%.

Regarding `Cc1ccc(NCc2nnc(SCC(=O)N3c4ccccc4Sc4ccccc43)o2)c(C)c1`, the cell number change was found to be 4.92%. Moreover, the AC50 under setting [2] was 0.731 µM [rising, full curve, poor fit].

Regarding `CCCNC(=S)N1CCC(Cc2ccccc2)CC1`, the cell number change was -11.6%. Also, the half-maximal activity concentration (AC50) under setting [2] was 0.366 µM [falling, full curve, poor fit].

Consider `CCOc1ccccc1NC1c2ccccc2C(=O)N1Cc1ccco1` (stereo unspecified), for which the cell number change was 9.99%.

Regarding `CCN(CC)C(=O)c1cnn(-c2ccccc2)c1NC(=O)c1ccco1`, the cell number change was -33.9%. Besides, under setting [1], the AC50 was 8.2 µM [falling, partial curve, poor fit]. For the same molecule, the concentration at half-maximal activity (AC50) under setting [2] is 3.26 µM [falling, full curve].

On to `Cc1ccc(C)c(C(=O)COc2ncnc3ccccc23)c1`, for which the cell number change amounted to 65.9%. In addition, the AC50 under setting [1] was 1.3 µM [rising, full curve]. In addition, the AC50 under setting [2] is 0.731 µM [rising, full curve].

In the case of `CC(C)NC(=O)CC(=O)N/N=C/c1c(F)cccc1Cl`, the cell number change was determined as 33.5%. For the same molecule, the concentration at half-maximal activity (AC50) under setting [1] is 1.84 µM [rising, full curve, poor fit].

On to `Cc1cc(C)cc(Nc2nc(-c3ccc(S(=O)(=O)N4CCCC4)cc3)cs2)c1`, for which the cell number change was -1.1%.

As to `Cc1n[nH]c(C)c1CCCCOc1ccccc1[N+](=O)[O-]`, the cell number change worked out at 1.23%.

Turning to `Cc1cccc(N(CC(=O)Nc2c(C)n(C)n(-c3ccccc3)c2=O)S(C)(=O)=O)c1C`, the cell number change came out at 15.2%.

As to `COc1ccc(CCN2CC(C(=O)N3CCC(OC)CC3)CCC2=O)cc1` (stereo unspecified), the AC50 under setting [2] is 0.461 µM [rising, partial curve].

With `O=C(N/N=C/c1ccc([N+](=O)[O-])o1)c1cn(-c2ccccc2)nc1-c1ccccc1`, the cell number change was -2.26%. Also, the AC50 under setting [2] is 0.206 µM [rising, full curve, poor fit].

As to `Cc1ccc(C2CN(C)C3(C(=O)Nc4ccccc43)C23COc2ccccc2C3=O)cc1` (stereo unspecified), the cell number change is -36.3%. The AC50 under setting [1] was 25.9 µM [falling, single point]. Under setting [2], the AC50 was 32.6 µM [falling, single point].

Turning to `CCOC(=O)c1cc(NC(=O)Nc2ccccc2OC)c(C)nc1C`, the cell number change was found to be 13.5%. The AC50 under setting [1] is 0.092 µM [rising, full curve, poor fit]. Besides, the AC50 under setting [2] was 0.259 µM [rising, partial curve, poor fit].

Consider `CCC(=O)c1ccc(OCC(=O)OCC(=O)N2c3ccccc3NC(=O)C2(C)C)cc1`, for which the cell number change was -39%. The AC50 under setting [1] was 4.61 µM [falling, partial curve, poor fit]. Besides, under setting [2], the AC50 was 1.16 µM [falling, partial curve, poor fit].

On to `COc1ccc(S(=O)(=O)N2CCN(C(=O)NCc3ccc(OC)c(OC)c3)CC2)cc1`, for which the cell number change was 17.1%. Further, the AC50 under setting [2] was 29.1 µM [rising, single point].

In the case of `CC1=C(C(=O)OCc2ccccc2)C(c2ccccc2[N+](=O)[O-])NC(=O)N1C` (stereo unspecified), the AC50 under setting [2] is 6.51 µM [rising, single point].

As for `O=C(CSc1ncccc1-c1nc2ccccc2[nH]1)N1CCN(c2ccccc2F)CC1`, under setting [2], the AC50 is 0.82 µM [rising, partial curve].

Take `CC(C)(C)C(=O)O/N=C1\CCS(=O)(=O)c2sccc21`: the cell number change was -44.5%. Further, under setting [1], the concentration at half-maximal activity (AC50) is 13 µM [falling, partial curve, poor fit].

For `CN(c1ccc(C(=O)Nc2cccnc2)cc1)S(=O)(=O)c1ccc(Cl)cc1`, the cell number change was -19.8%. The half-maximal activity concentration (AC50) under setting [2] is 1.64 µM [falling, partial curve, poor fit].

For the molecule `COc1ccccc1C(=O)Nc1nnc(-c2ccccc2)s1`, the cell number change is -17.5%. Also, the AC50 under setting [2] is 2.06 µM [falling, single point].

For the molecule `CCN(CC)C(=O)CCSc1nnc(-c2ccncc2)o1`, the cell number change turned out to be 5.73%. Under setting [2], the AC50 is 0.651 µM [falling, full curve, poor fit].

For `CN1CCN(S(=O)(=O)c2cccc(C(=O)Nc3sccc3C#N)c2)CC1`, the cell number change came to 4.15%.

Turning to `COc1ccc(C2C(C#N)=C(N)OC(C(C)(C)C)=C2C#N)cc1OC` (stereo unspecified), the cell number change is -5.02%. Further, under setting [2], the AC50 is 0.231 µM [rising, full curve, poor fit].

With `CCOC(=O)CN1NC2(CCCC(C)C2)NC1=S` (stereo unspecified), the cell number change is -146%. Further, the AC50 under setting [1] is 29.1 µM [falling, single point]. For the same molecule, the half-maximal activity concentration (AC50) under setting [2] was 0.731 µM [falling, single point].

Regarding `Cc1ccc(N(C(=O)c2snc(C(N)=O)c2N)C(C(=O)NCC2CCCO2)c2ccc(C)o2)c(C)c1` (stereo unspecified), the cell number change is -33.3%. Further, the AC50 under setting [1] is 0.731 µM [falling, full curve, poor fit]. Further, the AC50 under setting [2] is 29.1 µM [rising, single point].

Regarding `CC1CCCC(NC(=O)c2cccc(S(=O)(=O)NCc3ccccc3)c2)C1C` (stereo unspecified), the cell number change was -22.5%. Besides, the AC50 under setting [2] was 0.0058 µM [falling, full curve, poor fit].

`COc1ccc(CCNC(=O)CCCCCNc2nc(=S)[nH]c3ccccc23)cc1OC`: the cell number change was -37.3%. In addition, the AC50 under setting [1] is 13 µM [falling, single point]. In addition, under setting [2], the AC50 was 7.31 µM [falling, partial curve].

Consider `O=C1Nc2ccc(Cl)cc2C(C#CC2CC2)(C(F)(F)F)O1` (stereo unspecified), for which, under setting [2], the AC50 was 0.082 µM [falling, full curve, poor fit].

Take `CCOc1ccccc1NC(=O)NNS(=O)(=O)c1cc(C)ccc1C`: under setting [2], the AC50 is 29.1 µM [rising, single point].

Consider `O=S(=O)(NCc1csc(-c2ccccc2)n1)c1ccc(Cl)s1`, for which the cell number change was -21.1%. In addition, the AC50 under setting [2] was 10.3 µM [falling, partial curve, poor fit].

`CC1CCN(C(=O)CN(c2ccc3c(c2)OCCO3)S(=O)(=O)c2ccccc2)CC1`: the cell number change amounted to 18.9%. In addition, under setting [2], the AC50 was 6.51 µM [rising, single point].

Consider `COc1cccc(-n2c(SCC(=O)N3CCOCC3)nnc2-c2c[nH]c3ccccc23)c1`, for which the cell number change was -20.1%. For the same molecule, the AC50 under setting [2] was 20.6 µM [rising, single point].

For `CC(C)C(=O)NC(c1ccc(Cl)cc1Cl)c1ccc2cccnc2c1O` (stereo unspecified), the cell number change was -40.5%. Also, the AC50 under setting [1] was 16.4 µM [falling, partial curve].

With `O=C1NC2(CCCCC2)C(=O)N1CCN1C(=O)c2ccccc2C1=O`, the cell number change is -35.3%. Besides, under setting [1], the half-maximal activity concentration (AC50) was 0.146 µM [rising, full curve, poor fit].

`O=C1CCC([N+](=O)[O-])C(c2ccc(Cl)cc2Cl)N1` (stereo unspecified): the cell number change is -33.6%. Further, under setting [1], the AC50 was 0.411 µM [falling, full curve, poor fit]. Besides, the AC50 under setting [2] is 23.1 µM [falling, partial curve].

`COc1cccc(C(=O)OCC(=O)c2c[nH]c3ccccc23)c1OC`: the cell number change worked out at 38.5%. For the same molecule, under setting [1], the AC50 was 20.6 µM [rising, partial curve]. Further, the AC50 under setting [2] was 0.651 µM [falling, full curve].

For the molecule `COc1ccc(Nc2nc(N/N=C/c3ccc(N(C)C)cc3)nc(C)c2[N+](=O)[O-])cc1`, the cell number change was -34.7%. The AC50 under setting [1] was 16.4 µM [falling, single point]. In addition, the AC50 under setting [2] was 1.16 µM [rising, partial curve].

Consider `CS(=O)(=O)c1ccc(C(=O)OCc2nnc(-c3ccc(Cl)cc3)o2)cc1[N+](=O)[O-]`, for which the cell number change was -31%. Moreover, the half-maximal activity concentration (AC50) under setting [1] was 0.0206 µM [falling, full curve, poor fit]. The AC50 under setting [2] is 0.058 µM [falling, full curve, poor fit].

`Cc1nc2ccc(Br)cc2c(-c2ccccc2)c1C(=O)O`: the cell number change was -50.6%. Besides, the AC50 under setting [1] was 7.31 µM [falling, partial curve]. Under setting [2], the AC50 is 25.9 µM [falling, single point].

`CCOc1ccc(S(=O)(=O)NCCN2CCOCC2)c2ccccc12`: the cell number change is -11.6%. The AC50 under setting [2] was 4.61 µM [falling, full curve, poor fit].

In the case of `O=C(CNC(=O)c1ccco1)NCC(=O)OCc1cccc(C(=O)Oc2ccccc2)c1`, the cell number change was -106%. For the same molecule, under setting [1], the AC50 was 29.1 µM [falling, single point]. The AC50 under setting [2] is 29.1 µM [falling, single point].

In the case of `CCOC(=O)N1CCN(C(=O)c2cc(OCC)c(OCC)c(OCC)c2)CC1`, the cell number change was -38.1%. Moreover, under setting [1], the AC50 is 9.2 µM [falling, partial curve]. For the same molecule, under setting [2], the AC50 is 2.91 µM [falling, partial curve].

On to `CC(C)Oc1ccc(C2CC(=O)N(c3ccccc3)C2=O)cc1` (stereo unspecified), for which the cell number change stood at 46%. Also, the AC50 under setting [2] was 2.06 µM [falling, partial curve].

For the molecule `CCS(=O)(=O)N1CCN(S(=O)(=O)c2ccc(S(=O)(=O)NC3CC3)cc2)CC1`, under setting [2], the half-maximal activity concentration (AC50) was 29.1 µM [falling, partial curve].

Turning to `Cc1ccccc1NC(=O)C1C2CCCC1C2c1ccccc1` (stereo unspecified), the cell number change is -14.7%. Also, the concentration at half-maximal activity (AC50) under setting [2] was 0.651 µM [falling, full curve].
